Source: ChEMBL document CHEMBL3988442, “University of Dundee, Small-Polar-MMV Screening Library” (2021).

Leishmania in macrophages: 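Cell assay of Leishmania donovani living inside macrophages; the read-out is not stated. Compounds at 30 µM. The record gives no direction; compounds that gave an IC50 in retests scored well above the rest, so higher reads as stronger inhibition. About 69,000 compounds were tested under these conditions; 1.5% (about 1,000) showed 50% or more at least once.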
Toxoplasma: 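Assay of Toxoplasma gondii numbers, read through their beta-galactosidase reporter with a colour substrate. Compounds at 10 µM. Higher reads as fewer parasites (inferred from which compounds were picked for retests). About 67,000 compounds were tested under these conditions; 0.38% (about 260) showed 50% or more at least once.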

Values are the deposited “Percent Effect”, in %.
How 0% and 100% were set is not recorded. Most values in the screen are low, and negative values occur.
The compounds are a random part of those screened.
Two or more numbers in one place are separate tests of the same structure; such repeats can differ widely.
A dash means the value is not listed here; it may have been measured.

Compound	Leishmania in macrophages	Toxoplasma
CC(C)(C)CCN1CCN(c2snc(Cl)c2C#N)CC1	16.87%	-4.856%
Cc1ccc(CN2CCCn3nnc(COCCN(C)C)c3C2)s1.O=C(O)C(F)(F)F.O=C(O)C(F)(F)F	66.44%	-4.199%
CCOc1cc(CN(C)CCCC#N)ccc1OC(F)F	-10.62%	8.927%
CCNC(=O)C1CCN(c2cc(-c3ccccc3F)nc3ccnn23)C1 (stereo not drawn)	-18.55%	7.666%
CCN(CC)C(=O)CN(C)C(=O)c1cccn1CCc1ccccc1	30.18%	3.359%
CCCS(=O)(=O)N1CCC2(CC1)CN(CC1CCOC1)c1ccccc12.O=C(O)C(F)(F)F (stereo not drawn)	33.06%	-72.53%
CCCNC(=O)CNC(=O)CC1CCCc2cc(OC)ccc21 (stereo not drawn)	4.478%	3.476%
CNC(=O)[C@@H]1C[C@@H](N)CN1C(=O)CCSCc1ccccc1	28.32%	4.743%
CN1CCN(c2cc(CNC(=O)c3ccc(=O)[nH]n3)ccn2)CC1	16.39%	-8.045%
COCC1CN(C(=O)c2cccc(C)n2)Cc2ncnn2C1 (stereo not drawn)	-26.2%	3.074%
CCOc1cccc(COC(=O)c2ccc(Cl)cn2)n1	29.75%	-4.566%
CN1CCN(Cc2cccc(C#N)c2)Cc2cccnc21.O=C(O)C(F)(F)F.O=C(O)C(F)(F)F	9.891%	-10.06%
O=C(O)C(=O)O.c1cnc(-c2noc(C3CN(Cc4ccc5c(c4)CCO5)C3)n2)nc1	20.79% & 26.69%	31.27%
Cc1cnn(C2CCCN(C(=O)Cc3n[nH]c4ccccc34)C2)c1 (stereo not drawn)	-42.24%	-12.37%
CN1CCC2(CC1)C(=O)N(C)c1ccc(F)cc12.Cl	-6.409%	11.82%
Cc1cc(C(=O)NS(=O)(=O)Cc2ccon2)c(C)o1	-0.9797%	25.53%
COc1ccc(C(C(=O)O)N2CCN(C3CCCC3)CC2)cc1OC (stereo not drawn)	0.4968%	0.9815%
COc1ccccc1NC(=O)N(CCO)Cc1ccsc1	29.03%	24.42%
CC(C)c1nc(N2CCC(N3CCSCC3)CC2)c2cnn(C)c2n1	5.051%	4.091%
Cc1csc(N2CCN(C(=O)c3ccc(C)s3)CC2)n1	-13.51%	-15.38%
CC1(C)COCCN1C(=O)c1ccc(Cn2cncn2)cc1	20.36%	-14.98%
Cn1ncc2c(N3CC(N4CCCCC4)C3)nc(-c3ccncc3)nc21	-3.055%	2.921%
CCc1ccc2occ(CC(=O)N3CCC4(CCCN(C)C4=O)C3)c2c1 (stereo not drawn)	-14.26%	7.495%
Oc1nc(C2CCN(Cc3ccccn3)CC2)cc2ccccc12	-0.5665%	-
CCC(CNC(=O)c1c(C)nn(C)c1OC)Oc1ccccc1 (stereo not drawn)	32.73%	2.899%
CCCN(CC1COc2ccccc2O1)C(=O)C1=NN(C)C(=O)CC1 (stereo not drawn)	3.892%	-0.7991%
COc1ccc(CC(=O)Nc2cccnc2N2CCCC2)cc1OC	8.833%	10.95%
Cc1cc(C(=O)N2CC[C@@]3(C[C@@H](NS(C)(=O)=O)CCO3)C2)no1	13.02%	6.924%
Cc1ccc(-c2ccnc(N[C@H]3COC[C@@H]3N3CCCCC3)n2)c(C)n1	-7.065%	-17.06%
O=C(CC1NC(N2CCc3ccccc32)=NC1=O)Nc1ccccc1 (stereo not drawn)	-4.629%	8.947%
CN1CCC(c2nnc3n2CCN(S(=O)(=O)c2ccccc2Cl)C3)CC1	6.079%	-8.626%
Cc1nnc2ccc(N3CCC(C(=O)Nc4nccs4)CC3)nn12	-12.7%	-20.58%
Cc1nc(C)n(CC2CCCN(c3ncnc4ccsc34)C2)n1 (stereo not drawn)	35.24%	8.788%
CC1CCN(c2cncc(CCC3CCCN3)n2)CC1.Cl (stereo not drawn)	31.31%	0.5459%
CN(CCC(F)(F)F)c1nc2ccccc2c(=O)[nH]1	-31.65%	5.641%
O=C(CCNC(=O)c1ccoc1)Nc1ccccc1F	14.13%	0.8107%
CCS(=O)(=O)N1CCCC2(CCCC(=O)N2C)C1 (stereo not drawn)	-5.163%	-21.92%
COc1ccccc1-c1ncc(CN2C[C@@H](N(C)C)[C@H](C(C)C)C2)s1	52.36%	-2.423%
Cl.OC1(c2ccc(F)cc2)CCN(Cc2ccccc2N2CCCC2)CC1	-20.08%	10.28%
[H][C@]12CC[C@]([H])(CN(c3ncccn3)C1)N(C(=O)c1ccccc1C#N)C2	-24.46%	-6.326%
Cc1ccc(C)c(NC(=O)Cn2nc(C)c(C#N)c2N)c1	-16.83%	-6.444%
CN(C(=O)C1CSCN1S(=O)(=O)c1ccc(F)cc1)C1CC1 (stereo not drawn)	18.54%	2.073%
CN(CCCc1nccn1C)c1nccc(N2CCC(O)C2)n1 (stereo not drawn)	23.9%	-8.166%
CCCNC(=O)c1ccc(S(=O)(=O)NCC2(O)CCCNC2)cc1 (stereo not drawn)	-14.11%	-8.959%
CCn1nc(C)c2ccn(CC(=O)NC3CCCC3)c(=O)c21	6.493%	-1.552%
CC(CS(C)(=O)=O)N(C(=O)CCc1cccc(F)c1)C1CC1 (stereo not drawn)	-5.906%	-3.751%
Cc1cccnc1C(=O)N1CCCC(c2[nH]ncc2S(C)(=O)=O)C1 (stereo not drawn)	-23.25%	-5.245%
CN(C)C(=O)N1CCOCC2(CCN(c3ccccn3)C2)C1.O=C(O)C(F)(F)F (stereo not drawn)	18.14%	-3.03%
COCCN(CCOC)C(=O)c1sc(C)nc1C	-0.5586%	-4.293%
CS(=O)(=O)c1cc(Cl)cnc1C1CCN(C(=O)C2CCOCC2)CC1	0.8838%	-26.95%
N#CCc1ccc(OCC(=O)N2CCCC(n3cccn3)C2)cc1 (stereo not drawn)	13.6%	2.316%
O=C(O)C(F)(F)F.O=C(O)C(F)(F)F.O=C(O)C(F)(F)F.c1ccc(CN2CCC3(CC2)CCN(Cc2cccs2)C3)nc1	34.35%	3.696%
COc1ccc(CN2CCN(Cc3nccn3C)C(C)C2)cc1F (stereo not drawn)	8.179%	-11.25%
COCCN1CCC(Nc2c(F)cc(C#N)cc2F)CC1	0.6803%	3.218%
CN(C)S(=O)(=O)N1CCCC(c2nccn2Cc2cccnc2)C1 (stereo not drawn)	34.46%	2.544%
O=C(N1CCCC(n2cncn2)C1)C1(c2cccc(F)c2)CCCC1 (stereo not drawn)	-5.911%	-0.07628%
[H][C@]12CC[C@]([H])(CC(=O)N(C)C1)N2C(=O)c1ccc(C)[nH]c1=O	21.05%	-8.239%
CC(C)c1nc(C2CCCN2CCS(=O)(=O)c2ccccc2)no1 (stereo not drawn)	6.072%	11.66%
CCOCc1nn(CC2CC2)c2c1CN(Cc1cccs1)CC2.O=C(O)C(F)(F)F.O=C(O)C(F)(F)F	46.24%	-16.53%
COc1ccc(OC)c(-n2nnnc2SCC2CCCN(C)C2)c1 (stereo not drawn)	1.572%	20.17%

Once more, the final 6:

Compound,Leishmania in macrophages,Toxoplasma
CN(C)S(=O)(=O)N1CCCC(c2nccn2Cc2cccnc2)C1 (stereo not drawn),34.46%,2.544%
O=C(N1CCCC(n2cncn2)C1)C1(c2cccc(F)c2)CCCC1 (stereo not drawn),-5.911%,-0.07628%
[H][C@]12CC[C@]([H])(CC(=O)N(C)C1)N2C(=O)c1ccc(C)[nH]c1=O,21.05%,-8.239%
CC(C)c1nc(C2CCCN2CCS(=O)(=O)c2ccccc2)no1 (stereo not drawn),6.072%,11.66%
CCOCc1nn(CC2CC2)c2c1CN(Cc1cccs1)CC2.O=C(O)C(F)(F)F.O=C(O)C(F)(F)F,46.24%,-16.53%
COc1ccc(OC)c(-n2nnnc2SCC2CCCN(C)C2)c1 (stereo not drawn),1.572%,20.17%